Data as given in PubChem BioAssay AID493014 (National Center for Advancing Translational Sciences (NCATS), 2011).
Where “and” joins values, the source holds several entries; their conditions need not be identical. Equal entries are not always repeated. The list shows a part of the results. Further columns of the screen follow, without active or inactive calls. Compounds called inactive in the main read-out are mostly missing here. Potencies come from curve fits of mixed quality, noted in brackets.

Experiment: qHTS Assay to Find Inhibitors of Chronic Active B-Cell Receptor Signaling
Details: ABC-DLBCL IkBa-CBG/CBR reporter, luminescence ratio (green luciferase fused to IkBa over red control in TMD8 lymphoma cells), 4 h
Method in brief: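 TMD8 human ABC-DLBCL cells with doxycycline-inducible IκBα–green luciferase fusion and unfused red luciferase, in 0.5% FBS medium; compounds up to 46 uM, 4 h at 37C. Green/red luminescence ratio, filter-overlap corrected, fitted to concentration-response curves.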

[1] = measured here: CBR red luminescence, cell number
[2] = measured here: IkBa-CBG green luminescence

Which AC50 [1] does the source give for `COc1ccc2c(c1)c(C(=O)O)c(C)n2CC(C)C` here?
The AC50 was 6.51 µM [rising, single point].

Which AC50 [1] does the source give for `O=C1NC(=O)N(c2ccccc2)C(=O)/C1=C/c1ccc(Sc2ccccc2)o1` here?
The AC50 was 2.82 µM [rising, single point].

With `CC(C)c1ccc(-n2c(O)c(C=NCCN3CCNCC3)c(=O)[nH]c2=S)cc1` as the molecule, how does the AC50 [1] read?
Its AC50 is 22.4 µM [rising, single point].

For `Cn1nc(OC(=O)Nc2ccc(F)cc2)cc1C(F)(F)F`, which AC50 [1] is on record?
The AC50 was 2.91 µM [rising, full curve, poor fit].

For `COc1ccc(Cn2c(O)c(/C=N/NC(=O)c3ccccc3O)c(=O)[nH]c2=O)cc1`, which AC50 [1] is on record?
Its AC50 is 5.8 µM [falling, partial curve].

For `COc1ccc2c(c1)C13CCCC[C@@H]1C(C2)N(C)CC3` (stereo partly drawn), which AC50 [1] is on record?
The AC50 was 0.794 µM [rising, partial curve, poor fit].

For `Cn1c(O)c(C2=NNC(c3ccc(Cl)cc3)C2)c(=O)n(C)c1=O` (stereo not drawn), which AC50 [1] is on record?
Its AC50 is 3.16 µM [falling, partial curve].

For `CN1C(=O)C(=Cc2ccccc2Oc2ccc(Cl)cc2)C(=O)N(C)C1=O`, which AC50 [1] is on record?
Its AC50 is 5.17 µM [falling, partial curve, poor fit].

For `C#CCN1CCN(c2cccc(C(F)(F)F)c2)CC1`, which AC50 [1] is on record?
The AC50 was 12.6 µM [rising, partial curve, poor fit].

For `Cn1c(=O)oc2cc(S(=O)(=O)N3CCC(C(=O)NCc4cccs4)CC3)ccc21`, which AC50 [1] is on record?
Its AC50 is 6.51 µM [falling, single point].

With `COc1ccccc1N1C(=O)NC(=O)C2(Cc3cc(C)ccc3N(C)C2)C1=O` (stereo not drawn) as the molecule, how does the AC50 [1] read?
Its AC50 is 4.47 µM [rising, partial curve, poor fit].

With `Cc1cc(C)c(Cn2c(C(=O)O)c(C=O)c3ccccc32)c(C)c1` as the molecule, how does the AC50 [1] read?
Its AC50 is 14.1 µM [rising, single point].

Which AC50 [1] does the source give for `N[C@@]1(C(=O)O)CC[C@@H](C(=O)O)C1` here?
The AC50 was 29.1 µM [falling, single point].

For `Cc1ncc(CN2CCCC(C(=O)c3cccc(Cl)c3)C2)s1` (stereo not drawn), which AC50 [1] is on record?
The AC50 was 31.6 µM [rising, single point].

For `CCCOC(=O)C1C2c3ccccc3C(c3ccccc32)C1C(=O)O` (stereo not drawn), which AC50 [1] is on record?
Its AC50 is 35.5 µM [rising, single point].

With `COc1ccc(/C=C/C(=O)Nc2cccc(S(=O)(=O)N3CCCC3)c2)cc1OC` as the molecule, how does the AC50 [1] read?
The AC50 was 35.5 µM [falling, single point].

With `COCC(C)OC(=O)c1c(N)n(Cc2ccco2)c2nc3ccccc3nc12` (stereo not drawn) as the molecule, how does the AC50 [1] read?
Its AC50 is 1.58 µM [falling, partial curve, poor fit].

For `CCCNC(=O)c1c(N)n(Cc2ccc3c(c2)OCO3)c2nc3ccccc3nc12`, which AC50 [1] is on record?
Its AC50 is 4.11 µM [falling, partial curve, poor fit].

With `CCN(CC)c1ccc(/C=C(\C#N)C(N)=O)cc1` as the molecule, how does the AC50 [1] read?
Its AC50 is 12.6 µM [rising, partial curve, poor fit].

With `CCCCOP(=O)(c1ccc(N(C)C)cc1)C(O)c1ccc(C(C)C)cc1` (stereo not drawn) as the molecule, how does the AC50 [1] read?
Its AC50 is 12.6 µM [falling, partial curve].

Which AC50 [1] does the source give for `COc1nc2ccccc2c(=O)n1-c1ccc(Cl)cc1` here?
Its AC50 is 29.1 µM [rising, single point].

For `COc1ccccc1NC(=O)COC(=O)c1cn(C)c2ccccc12`, which AC50 [1] is on record?
The AC50 was 3.26 µM [falling, partial curve].

Which AC50 [1] does the source give for `Cc1nn(Cc2ccccc2)c(Cl)c1C(=O)OCC(=O)Nc1cccc2ccccc12` here?
The AC50 was 32.6 µM [falling, single point].

For `Cc1ccccc1-n1c(/C=C/c2ccccn2)nc2ccccc2c1=O`, which AC50 [1] is on record?
The AC50 was 7.08 µM [rising, full curve, poor fit].

For `COC(=O)C1=C(c2ccc(F)cc2F)C[C@@H]2CC[C@H]1N2C(=O)NCCOc1ccccc1Cl`, which AC50 [1] is on record?
Its AC50 is 0.517 µM [falling, full curve, poor fit].

Which AC50 [1] does the source give for `Nc1c(C(=O)NC2CCCC2)c2nc3ccccc3nc2n1CC1CCCO1` (stereo not drawn) here?
The AC50 was 17.8 µM [falling, single point].

Which AC50 [1] does the source give for `COc1ccc(N=Nc2c(O)[nH]c(=S)[nH]c2=O)cc1` here?
The AC50 was 10 µM [falling, partial curve].

Which AC50 [1] does the source give for `O=C(N/N=C/c1c(O)n(CCc2ccc(F)cc2)c(=O)[nH]c1=O)c1ccccc1` here?
Its AC50 is 1.58 µM [falling, full curve].

With `CC1(C)Cc2c(sc3c2C(=O)NC(c2cccnc2)N3)CO1` (stereo not drawn) as the molecule, how does the AC50 [1] read?
The AC50 was 5.8 µM [falling, single point].

Which AC50 [1] does the source give for `O=C(/C=C/c1ccccc1)NC(=S)N1C[C@H]2C[C@H](C1)c1cccc(=O)n1C2` here?
Its AC50 is 3.16 µM [rising, partial curve, poor fit].

With `O=C1NC(=O)N(c2ccccc2F)C(=O)/C1=C/c1ccc(Sc2nc3ccccc3[nH]2)o1` as the molecule, how does the AC50 [1] read?
The AC50 was 0.92 µM [rising, full curve, poor fit].

For `CC1CCN(CC(=O)c2ccc3c(c2)OCCO3)CC1`, which AC50 [1] is on record?
The AC50 was 17.8 µM [falling, partial curve].

For `CC(C(=O)c1ccccc1)N1C(=O)c2ccccc2C1=O` (stereo not drawn), which AC50 [1] is on record?
The AC50 was 13 µM [rising, partial curve, poor fit].

For `CCCCC/C(=N\O)c1c[nH]c2ccccc12`, which AC50 [1] is on record?
The AC50 was 0.0891 µM [rising, full curve, poor fit].

Which AC50 [1] does the source give for `Cc1ccccc1-n1c(O)c(/C=N/Nc2nc3c(c(=O)n(C)c(=O)n3C)n2C)c(=O)[nH]c1=S` here?
Its AC50 is 0.651 µM [falling, partial curve, poor fit].

Which AC50 [1] does the source give for `CCCc1cc(C(=O)Nc2cccc(Cl)c2C)no1` here?
Its AC50 is 10 µM [falling, partial curve].

Which AC50 [1] does the source give for `CCc1ccc2nc(N3CCN(C(=O)C4CC4)CC3)sc2c1` here?
The AC50 was 2.82 µM [rising, partial curve, poor fit].

With `Cc1ccc(-c2nc3ccccc3c(=O)n2-c2ccc(O)cc2)cc1` as the molecule, how does the AC50 [1] read?
The AC50 was 5.01 µM [falling, partial curve, poor fit].

With `NC(Cc1nc2ccccc2[nH]1)c1ccc(Cl)cc1` (stereo not drawn) as the molecule, how does the AC50 [1] read?
Its AC50 is 11.2 µM [falling, partial curve, poor fit].

Which AC50 [1] does the source give for `COc1cccc(-c2nn(Cc3ccccc3)cc2C(=O)O)c1` here?
Its AC50 is 4.47 µM [rising, full curve, poor fit].

For `O=C(N1CCN=C1SCc1cccnc1)C12CC3CC(CC(C3)C1)C2`, which AC50 [1] is on record?
The AC50 was 10 µM [falling, partial curve, poor fit].

With `Cc1ccc(S(=O)(=O)N2CCOC2CNC(=O)C(=O)NCCc2ccc(S(N)(=O)=O)cc2)cc1` (stereo not drawn) as the molecule, how does the AC50 [1] read?
Its AC50 is 35.5 µM [rising, single point].

What does the source list for `C[C@@H]1O[C@@H](O[C@H]2C[C@@H](O)[C@]3(CO)[C@H]4[C@H](O)C[C@]5(C)[C@@H](C6=CC(=O)OC6)CC[C@]5(O)[C@@H]4CC[C@]3(O)C2)[C@H](O)[C@H](O)[C@H]1O`?
AC50 [1]: 9.2 µM [falling, partial curve] and 326 nM [falling, full curve]; AC50 [2]: 0.517 µM [rising, partial curve]

With `CCOC(=O)c1c(C)c(C(=O)N2CCC3(CC2)OCCO3)c(C)n1CC` as the molecule, how does the AC50 [1] read?
Its AC50 is 32.6 µM [rising, partial curve, poor fit].

For `O=C(c1ccc2c3c(cccc13)CC2)C1CCCN(CC2CC2)C1` (stereo not drawn), which AC50 [1] is on record?
Its AC50 is 15.8 µM [falling, partial curve, poor fit].

With `CC(C)Oc1ccc(Cc2c(O)[nH]c(=O)[nH]c2=O)cc1` as the molecule, how does the AC50 [1] read?
The AC50 was 3.55 µM [rising, partial curve, poor fit].

For `Cc1ccc(-c2nc3ccc(Cl)cc3n2OC(=O)N(C)C)cc1`, which AC50 [1] is on record?
The AC50 was 3.26 µM [rising, partial curve, poor fit].

For `O=C1NC(=O)N(c2ccccc2F)C(=O)/C1=C/c1ccc(Oc2ccc([N+](=O)[O-])cn2)cc1`, which AC50 [1] is on record?
The AC50 was 35.5 µM [falling, single point].

For `COc1cccc(C2C([N+](=O)[O-])=C(N)Oc3c2c(=O)oc2ccccc32)c1` (stereo not drawn), which AC50 [1] is on record?
Its AC50 is 1.64 µM [falling, full curve, poor fit].

Which AC50 [1] does the source give for `COc1ccc(/C=C/C2=CCN(C)CC2)cc1` here?
The AC50 was 14.1 µM [rising, partial curve, poor fit].

For `CC1CC(OP(O)(=S)c2ccc(N(C)C)cc2NC(=O)c2cccs2)CC(C)(C)C1` (stereo not drawn), which AC50 [1] is on record?
The AC50 was 31.6 µM [rising, single point].

With `O=C(CN1CCCCC1)c1cccc(Br)c1` as the molecule, how does the AC50 [1] read?
The AC50 was 0.82 µM [falling, partial curve, poor fit].

Which AC50 [1] does the source give for `O=c1c2ccccc2nc(/C=C/c2ccccc2)n1-c1ccc(O)cc1` here?
Its AC50 is 4.47 µM [falling, partial curve, poor fit].

For `C=CCn1c(O)c(C(CC)=NCCc2c[nH]c3ccccc23)c(=O)[nH]c1=O`, which AC50 [1] is on record?
The AC50 was 10 µM [falling, partial curve, poor fit].

With `O=C(CSC1c2ccccc2-c2ccccc21)N/N=C/c1ccc(C(=O)O)cc1` as the molecule, how does the AC50 [1] read?
Its AC50 is 10 µM [falling, partial curve, poor fit].

For `COc1ccc2[nH]c3c(c2c1)CCN[C@H]3C`, which AC50 [1] is on record?
The AC50 was 11.2 µM [falling, single point].

Which AC50 [1] does the source give for `CCC(=Nc1ccc2c(c1)CCC2)c1c(O)n(-c2ccc(OC)cc2)c(=O)[nH]c1=O` here?
Its AC50 is 0.708 µM [rising, full curve, poor fit].

With `CN(C)c1nnnn1-c1ccc(Oc2ncc(C(F)(F)F)cc2Cl)cc1` as the molecule, how does the AC50 [1] read?
Its AC50 is 25.1 µM [falling, single point].

Which AC50 [1] does the source give for `Nc1c2c(nc3sc4c(c13)CCCC4)CCCC2` here?
Its AC50 is 20 µM [falling, single point].

Which AC50 [1] does the source give for `Fc1ccc(C(OCCN2CCCC2)c2ccc(Br)cc2)cc1` (stereo not drawn) here?
The AC50 was 14.1 µM [falling, partial curve].

For `CC1CN(CC(=O)c2ccccc2Cl)CC(C)O1` (stereo not drawn), which AC50 [2] is on record?
Its AC50 is 14.1 µM [falling, partial curve, poor fit].

With `CCOP(=O)(OCC)C(NC(=O)Nc1ccc(Cl)c(Cl)c1)c1ccccc1` (stereo not drawn) as the molecule, how does the AC50 [1] read?
The AC50 was 23.1 µM [falling, single point].
